Reference: US20160046678A1 (ZYNGENIA, published 2016)
No constants are given. Whether binding was seen depends on the method and setting. Some binding calls cover weakened binding; strength is not graded here.

T1: TL1A (UniProt O95150)
T1 sequence (looked up): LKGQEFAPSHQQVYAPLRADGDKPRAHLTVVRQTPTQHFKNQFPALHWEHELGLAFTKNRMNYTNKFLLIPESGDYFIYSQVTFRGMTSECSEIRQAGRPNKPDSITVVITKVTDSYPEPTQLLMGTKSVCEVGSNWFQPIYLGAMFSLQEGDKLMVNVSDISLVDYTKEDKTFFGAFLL


target: T1, TL1A; assay: peptide selection, Example 48

binding, binds:
LEFVCWDDDRGKLVFCAGHM [TLA291]
SLDVCWDHHLDKLTFCNLNM [TLA303]
PPAVCWDNNSSKLVFCHSFI [TLA313]
SYAVCWNALEEKLVFCTDEI [TLA317]
HLDVCWDIDLDHLYYCDLGM [TLA141]
DYDVCWDLNLDRLYYCDSPM [TLA145]
DYAVCWDEHKQKLEFCRTFI [TLA301]
EYAVCWDEVQERLEWCTRPN [TLA334]
KLDVCWDLDVDRLYFCDAPM [TLA134]
NKAVCWNYHQEKLEFCNSTM [TLA294]
ESDVCWNENVEQLEFCNGRF [TLA323]
DYDVCWDLDNDRLFYCDSAM [TLA150]
EYAVCWSEAQGKLEWCQGSN [TLA311]
DYDVCWDVLVDRLYYCDVPM [TLA135]
EYALCWVEAQEKLVWCKDLI [TLA296]
EFAVCWDDGQEKLVWCNRLH [TLA335]
PNEVCWDSHKEKLVFCTHQM [TLA318]
DYDVCWDIDADRLYYCHAAM [TLA139]
EYAVCWVEEHEKLLWCEGLN [TLA309]
DYAVCWDEAQEKLVWCNGLS [TLA298]
EYDVCWDVQNDRLYYCDAPE [TLA146]
DYDVCWDYDVDRLYYCNFQS [TLA147]
KYDVCWDDYLDILYYCNGPL [TLA140]
NLDVCWDNNRGKLMFCRNHD [TLA316]
RSEVCWDTHLFKLVYCQDWF [TLA337]
TYAVCWDFNAHKLVFCDDMM [TLA295]
RWAVCWDTDRQKLLFCGPML [TLA325]
DYAVCWVEDQGKLVWCNGVN [TLA297]
DYAVCWSEAQDKLEWCIGHN [TLA308]
EYDVCWDIDSDRLYLCVGLM [TLA143]
QSSVCWDYNSQKLRFCDMSL [TLA327]
EYAVCWVHSQEKLDWCTGSK [TLA299]
DYDVCWDIYEDRLFYCEMHV [TLA133]
DYDVCWDYKIDHLYYCDGPV [TLA148]
QLDVCWDDHYQKLYFCYARI [TLA304]
EYALCWDDPLEKLQWCKDIS [TLA331]
EYALCWNEVHEQLEFCIGRN [TLA336]
GYDVCWDYEEDRLFYCESPL [TLA149]
DYAVCWDVGLEKLVWCKGSL [TLA312]
ENAVCWDESQEKLVWCNGIR [TLA321]
EYTVCWDASNEKLYFCHYPL [TLA302]
DYDVCWDVHADRLYYCKEDI [TLA144]
GHEVCWDMHNEKLVFCRTHI [TLA293]
EYALCWNEVQEKLVWCKELN [TLA332]
LDLVCWDENSQKLLFCTKPG [TLA326]
EYALCWLEAQEKLDWCTELN [TLA319]
MYDVCWDLEVDRLYYCEAPM [TLA142]
EYSVCWVVDQEKLVWCRSLH [TLA310]
RLDVCWDEHASKLVFCRSYM [TLA328]
EYAVCWDEVQDKLVWCNGVN [TLA333]
DYDVCWDLHLDRLYYCHAYC [TLA136]
DYDVCWDIDLDRLYYCDAGS [TLA138]
EYAVCWNEARGKLEYCTALK [TLA300]
LDQVCWDLYANKLIFCADVI [TLA315]
EYAVCWDEAPEKLIWCEGLN [TLA324]
SYDVCWDSRLTKLVYCNASN [TLA306]
QYAVCWDEALEKLLWCKELH [TLA307]
ISAVCWDTQLQKLVFCNASM [TLA329]
LDTVCWDIHSGRLVFCASLL [TLA330]
SSNVCWDDVLETLRFCHTHM [TLA314]
KFHVCWDSHQDKLVYCSLKV [TLA290]
